± gives the standard deviation of the averaged measurements. The list shows a part of the results, in another mix than the full data. Most values lie at the level of the controls, where differences are scatter.
Compound: Nc1ncnc2c1ncn2[C@@H]1O[C@H](COP(=O)(O)OP(=O)(O)NP(=O)(O)O)[C@@H](O)[C@H]1O [adenylyl imidodiphosphate]
Assay: NP40-soluble protein abundance relative to vehicle (solubility fold change) (ratio); higher = more soluble protein in presence of AMP-PNP
Settings: concentration: 0.1mM
Procedure, shortened: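 Jurkat crude lysate prepared with a Dounce homogeniser was treated at eight concentrations spanning 0.1 to 10 mM, 10 min at room temperature then 3 min at 37 °C. Solubilisation with 0.8% NP40 and benzonase and ultracentrifugation preceded TMT labelling of the supernatant for LC-MS/MS. Fold change against the detergent-processed vehicle was determined per replicate from vsn-normalised intensities, across three independent experiments.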

By UniProt entry, the sequences of proteins in these tests, tags left out. Where a name states a change or a piece, a line headed by the entry shows the natural chain unless it says otherwise.
UniProt Q9BRX8: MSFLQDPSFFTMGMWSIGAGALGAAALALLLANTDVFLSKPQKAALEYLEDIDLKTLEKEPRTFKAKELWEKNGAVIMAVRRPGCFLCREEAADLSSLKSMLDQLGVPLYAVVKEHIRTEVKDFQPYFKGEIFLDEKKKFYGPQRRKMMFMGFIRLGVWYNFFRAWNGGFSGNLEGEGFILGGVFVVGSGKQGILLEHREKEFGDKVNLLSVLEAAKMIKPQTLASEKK
UniProt Q9BUL5: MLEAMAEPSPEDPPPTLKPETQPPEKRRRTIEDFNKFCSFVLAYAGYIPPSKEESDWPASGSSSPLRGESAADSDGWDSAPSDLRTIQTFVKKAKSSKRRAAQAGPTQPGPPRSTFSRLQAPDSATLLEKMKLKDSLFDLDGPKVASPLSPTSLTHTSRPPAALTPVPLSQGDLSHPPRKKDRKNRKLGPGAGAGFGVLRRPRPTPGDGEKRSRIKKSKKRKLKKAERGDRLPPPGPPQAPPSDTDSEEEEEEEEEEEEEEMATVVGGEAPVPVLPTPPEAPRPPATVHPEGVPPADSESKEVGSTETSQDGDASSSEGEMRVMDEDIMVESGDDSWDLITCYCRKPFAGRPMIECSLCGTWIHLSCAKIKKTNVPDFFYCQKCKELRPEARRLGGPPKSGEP
UniProt Q9BSJ8: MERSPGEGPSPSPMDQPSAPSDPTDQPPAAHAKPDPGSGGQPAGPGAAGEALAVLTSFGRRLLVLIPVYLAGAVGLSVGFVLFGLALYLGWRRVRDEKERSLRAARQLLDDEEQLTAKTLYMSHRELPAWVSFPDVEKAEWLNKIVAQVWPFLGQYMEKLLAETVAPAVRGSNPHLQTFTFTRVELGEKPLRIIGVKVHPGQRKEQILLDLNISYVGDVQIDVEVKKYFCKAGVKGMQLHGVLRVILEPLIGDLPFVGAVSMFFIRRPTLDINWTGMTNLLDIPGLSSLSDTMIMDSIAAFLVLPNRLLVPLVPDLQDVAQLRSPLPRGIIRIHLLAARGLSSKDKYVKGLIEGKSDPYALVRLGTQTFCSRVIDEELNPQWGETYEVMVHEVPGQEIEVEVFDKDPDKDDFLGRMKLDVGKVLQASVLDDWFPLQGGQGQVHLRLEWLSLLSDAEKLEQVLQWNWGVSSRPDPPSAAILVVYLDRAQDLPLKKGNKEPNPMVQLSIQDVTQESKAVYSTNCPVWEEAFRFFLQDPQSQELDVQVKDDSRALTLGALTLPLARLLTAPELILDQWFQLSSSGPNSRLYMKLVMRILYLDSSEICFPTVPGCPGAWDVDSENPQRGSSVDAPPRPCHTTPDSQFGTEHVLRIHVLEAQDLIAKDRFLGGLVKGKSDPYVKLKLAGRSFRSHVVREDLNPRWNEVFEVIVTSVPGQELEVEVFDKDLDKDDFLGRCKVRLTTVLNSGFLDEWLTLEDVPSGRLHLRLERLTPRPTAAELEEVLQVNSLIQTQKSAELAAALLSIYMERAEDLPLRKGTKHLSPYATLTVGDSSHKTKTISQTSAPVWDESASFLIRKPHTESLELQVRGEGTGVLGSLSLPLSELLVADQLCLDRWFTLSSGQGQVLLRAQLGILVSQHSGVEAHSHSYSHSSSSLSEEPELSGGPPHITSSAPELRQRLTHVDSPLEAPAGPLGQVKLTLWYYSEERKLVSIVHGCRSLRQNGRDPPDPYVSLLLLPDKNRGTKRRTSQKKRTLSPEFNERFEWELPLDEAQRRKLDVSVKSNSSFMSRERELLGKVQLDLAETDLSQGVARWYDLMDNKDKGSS
UniProt Q9BUE6: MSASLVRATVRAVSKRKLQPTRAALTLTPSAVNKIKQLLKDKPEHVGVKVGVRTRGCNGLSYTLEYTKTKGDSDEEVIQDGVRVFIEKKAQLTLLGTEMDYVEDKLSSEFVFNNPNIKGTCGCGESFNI
UniProt Q9BTY7: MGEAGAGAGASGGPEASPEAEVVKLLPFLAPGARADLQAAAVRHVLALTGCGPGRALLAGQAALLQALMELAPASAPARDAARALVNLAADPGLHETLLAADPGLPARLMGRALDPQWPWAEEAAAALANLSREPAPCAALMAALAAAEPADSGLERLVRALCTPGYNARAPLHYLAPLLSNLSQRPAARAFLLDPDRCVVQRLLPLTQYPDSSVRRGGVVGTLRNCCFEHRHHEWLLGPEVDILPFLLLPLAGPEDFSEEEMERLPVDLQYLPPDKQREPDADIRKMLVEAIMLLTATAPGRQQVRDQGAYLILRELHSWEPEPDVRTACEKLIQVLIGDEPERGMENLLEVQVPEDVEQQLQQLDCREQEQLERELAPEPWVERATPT
UniProt Q9BWT6: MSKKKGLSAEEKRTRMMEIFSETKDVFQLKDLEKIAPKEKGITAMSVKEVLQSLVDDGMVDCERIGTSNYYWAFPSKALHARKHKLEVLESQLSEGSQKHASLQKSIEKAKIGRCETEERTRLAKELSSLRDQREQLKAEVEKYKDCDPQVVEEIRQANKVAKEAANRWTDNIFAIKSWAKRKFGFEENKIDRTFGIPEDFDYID
UniProt Q9BZ95: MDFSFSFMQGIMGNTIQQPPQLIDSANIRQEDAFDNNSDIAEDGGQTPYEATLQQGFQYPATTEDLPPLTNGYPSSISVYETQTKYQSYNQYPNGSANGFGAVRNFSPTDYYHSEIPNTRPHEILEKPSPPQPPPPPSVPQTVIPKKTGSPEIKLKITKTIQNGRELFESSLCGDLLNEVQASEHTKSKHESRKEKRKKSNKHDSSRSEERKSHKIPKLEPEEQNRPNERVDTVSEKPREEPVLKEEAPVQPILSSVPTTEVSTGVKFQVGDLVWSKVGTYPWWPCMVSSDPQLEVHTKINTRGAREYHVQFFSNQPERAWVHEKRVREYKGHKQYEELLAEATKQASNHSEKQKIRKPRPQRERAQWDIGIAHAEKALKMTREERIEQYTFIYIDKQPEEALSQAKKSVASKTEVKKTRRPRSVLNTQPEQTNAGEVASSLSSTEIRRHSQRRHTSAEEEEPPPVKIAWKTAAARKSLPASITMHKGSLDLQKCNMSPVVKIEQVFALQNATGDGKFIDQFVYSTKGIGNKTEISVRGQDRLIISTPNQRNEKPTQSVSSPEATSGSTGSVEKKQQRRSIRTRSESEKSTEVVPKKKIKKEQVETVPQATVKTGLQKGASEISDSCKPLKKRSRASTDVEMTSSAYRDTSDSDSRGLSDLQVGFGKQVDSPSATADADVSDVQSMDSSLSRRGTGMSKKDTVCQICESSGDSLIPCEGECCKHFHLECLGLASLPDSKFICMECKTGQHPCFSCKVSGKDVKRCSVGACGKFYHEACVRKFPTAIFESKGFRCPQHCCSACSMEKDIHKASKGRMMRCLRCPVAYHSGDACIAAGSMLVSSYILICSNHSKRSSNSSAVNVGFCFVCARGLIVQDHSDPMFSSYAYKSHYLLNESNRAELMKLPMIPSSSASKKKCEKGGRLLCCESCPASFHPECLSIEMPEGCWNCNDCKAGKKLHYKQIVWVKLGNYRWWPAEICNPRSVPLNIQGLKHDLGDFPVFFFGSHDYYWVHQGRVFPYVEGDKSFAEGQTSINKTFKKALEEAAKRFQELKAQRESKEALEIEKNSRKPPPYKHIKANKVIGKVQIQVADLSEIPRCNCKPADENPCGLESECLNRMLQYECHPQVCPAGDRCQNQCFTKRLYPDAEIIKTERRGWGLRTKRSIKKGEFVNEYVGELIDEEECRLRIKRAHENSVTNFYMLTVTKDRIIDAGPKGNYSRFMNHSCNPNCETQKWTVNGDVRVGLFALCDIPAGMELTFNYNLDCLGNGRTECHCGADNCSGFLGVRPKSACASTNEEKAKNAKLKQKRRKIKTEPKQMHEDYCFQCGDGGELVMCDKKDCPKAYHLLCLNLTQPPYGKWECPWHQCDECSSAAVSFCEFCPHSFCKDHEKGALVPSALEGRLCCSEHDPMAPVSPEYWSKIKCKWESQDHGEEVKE
UniProt Q9BTE1, whole entry: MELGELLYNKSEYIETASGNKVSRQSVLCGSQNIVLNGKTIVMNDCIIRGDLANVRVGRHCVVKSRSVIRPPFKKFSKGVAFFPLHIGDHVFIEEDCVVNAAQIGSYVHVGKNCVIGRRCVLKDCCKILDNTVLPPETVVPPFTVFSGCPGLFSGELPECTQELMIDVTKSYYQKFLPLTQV
UniProt Q9BU76: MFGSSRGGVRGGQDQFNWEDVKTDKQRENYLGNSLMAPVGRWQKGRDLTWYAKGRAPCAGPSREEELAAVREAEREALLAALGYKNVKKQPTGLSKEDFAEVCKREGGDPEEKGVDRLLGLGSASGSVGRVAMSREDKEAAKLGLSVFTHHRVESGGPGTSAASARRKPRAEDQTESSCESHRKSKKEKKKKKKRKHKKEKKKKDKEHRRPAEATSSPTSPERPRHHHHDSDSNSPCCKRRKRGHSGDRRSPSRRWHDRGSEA
UniProt Q9BV20: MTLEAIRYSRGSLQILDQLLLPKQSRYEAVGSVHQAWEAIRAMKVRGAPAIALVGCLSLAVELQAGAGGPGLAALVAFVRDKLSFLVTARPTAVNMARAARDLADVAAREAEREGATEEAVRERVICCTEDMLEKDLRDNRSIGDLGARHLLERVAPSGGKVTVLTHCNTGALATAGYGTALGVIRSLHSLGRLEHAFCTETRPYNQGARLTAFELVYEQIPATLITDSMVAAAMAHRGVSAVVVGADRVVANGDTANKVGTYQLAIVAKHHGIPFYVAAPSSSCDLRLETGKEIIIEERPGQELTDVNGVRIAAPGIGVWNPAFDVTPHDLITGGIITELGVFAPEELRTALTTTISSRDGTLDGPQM
UniProt Q96S99: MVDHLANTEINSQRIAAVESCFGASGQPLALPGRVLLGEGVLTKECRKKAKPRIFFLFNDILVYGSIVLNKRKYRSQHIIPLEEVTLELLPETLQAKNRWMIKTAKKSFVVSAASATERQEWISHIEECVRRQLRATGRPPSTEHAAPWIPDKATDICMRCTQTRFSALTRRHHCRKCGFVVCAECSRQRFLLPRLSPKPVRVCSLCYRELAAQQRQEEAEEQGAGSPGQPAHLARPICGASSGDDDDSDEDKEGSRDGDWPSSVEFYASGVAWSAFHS
UniProt Q9BVC5: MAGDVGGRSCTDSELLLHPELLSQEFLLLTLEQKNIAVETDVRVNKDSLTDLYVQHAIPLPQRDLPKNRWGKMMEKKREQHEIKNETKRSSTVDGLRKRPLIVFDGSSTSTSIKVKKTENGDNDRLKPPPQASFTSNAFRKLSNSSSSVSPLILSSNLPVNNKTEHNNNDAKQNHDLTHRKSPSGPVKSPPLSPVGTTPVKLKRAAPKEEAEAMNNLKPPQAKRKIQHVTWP
UniProt Q9BQG0: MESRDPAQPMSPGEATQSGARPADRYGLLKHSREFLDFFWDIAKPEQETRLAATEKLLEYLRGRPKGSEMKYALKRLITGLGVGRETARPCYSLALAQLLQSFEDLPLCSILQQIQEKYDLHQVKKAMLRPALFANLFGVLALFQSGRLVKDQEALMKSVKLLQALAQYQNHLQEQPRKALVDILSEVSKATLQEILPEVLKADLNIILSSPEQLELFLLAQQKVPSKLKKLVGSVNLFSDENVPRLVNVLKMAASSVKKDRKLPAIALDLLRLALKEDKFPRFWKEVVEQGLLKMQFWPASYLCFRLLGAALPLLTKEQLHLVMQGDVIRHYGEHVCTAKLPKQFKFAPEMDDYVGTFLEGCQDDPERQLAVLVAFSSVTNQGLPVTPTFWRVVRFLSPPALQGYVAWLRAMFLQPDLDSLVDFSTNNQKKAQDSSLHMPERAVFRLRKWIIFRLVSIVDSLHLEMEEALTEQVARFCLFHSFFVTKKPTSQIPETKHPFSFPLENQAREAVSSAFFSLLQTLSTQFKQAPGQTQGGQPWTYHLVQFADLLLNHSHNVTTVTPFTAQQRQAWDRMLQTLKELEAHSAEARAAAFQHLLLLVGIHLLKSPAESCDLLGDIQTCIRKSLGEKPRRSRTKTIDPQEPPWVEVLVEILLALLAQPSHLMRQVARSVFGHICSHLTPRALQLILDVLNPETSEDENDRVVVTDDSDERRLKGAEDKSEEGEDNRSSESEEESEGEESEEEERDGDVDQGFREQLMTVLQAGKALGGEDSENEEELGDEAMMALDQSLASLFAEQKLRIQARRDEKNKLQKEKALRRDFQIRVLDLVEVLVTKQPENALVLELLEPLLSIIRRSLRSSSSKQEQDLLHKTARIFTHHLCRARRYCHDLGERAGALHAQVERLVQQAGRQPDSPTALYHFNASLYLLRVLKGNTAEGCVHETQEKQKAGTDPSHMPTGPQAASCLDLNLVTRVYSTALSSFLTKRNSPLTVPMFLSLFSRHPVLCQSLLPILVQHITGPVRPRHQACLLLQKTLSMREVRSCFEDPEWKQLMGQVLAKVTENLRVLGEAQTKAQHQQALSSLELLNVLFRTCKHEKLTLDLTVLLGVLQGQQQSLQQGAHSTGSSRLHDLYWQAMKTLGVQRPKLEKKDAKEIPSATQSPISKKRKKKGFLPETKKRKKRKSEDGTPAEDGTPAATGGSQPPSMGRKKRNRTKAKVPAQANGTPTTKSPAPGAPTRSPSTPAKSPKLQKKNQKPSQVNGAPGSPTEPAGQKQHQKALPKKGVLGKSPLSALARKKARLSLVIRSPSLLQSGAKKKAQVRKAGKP

| Target | NP40-soluble protein abundance |
| --- | --- |
| UniProt Q9BRX8 and related entries | 1.06 ± 0.035 |
| UniProt Q9BUL5 and related entries | 0.9896 ± 0.0041 |
| UniProt Q9BV86 | 1.04 ± 0.062 |
| NLN (UniProt Q9BYT8) | 1.03 ± 0.067 |
| UniProt Q9BSJ8 and related entries | 1.01 ± 0.035 |
| PRPF18 (UniProt Q99633) | 0.992 ± 0.023 |
| UniProt Q9BUE6 and related entries | 0.994 ± 0.012 |
| UniProt Q9BZ67-2 | 0.995 ± 0.02 |
| UniProt Q9BTY7 | 0.998 ± 0.044 |
| MND1 (UniProt Q9BWT6) | 0.961 ± 0.033 |
| SMAD5 (UniProt Q99717) | 0.996 ± 0.046 |
| UniProt Q9BZ95 and related entries | 1.04 ± 0.03 |
| UniProt Q9BU02 and related entries | 1.03 ± 0.028 |
| UniProt Q99766 | 0.973 ± 0.0055 |
| DCTN5 (UniProt Q9BTE1) | 1.027 ± 0.0031 |
| UniProt Q9BU76 and related entries | 0.998 ± 0.042 |
| MIPEP (UniProt Q99797) | 1.03 ± 0.035 |
| MRI1 (UniProt Q9BV20) | 0.992 ± 0.021 |
| PLEKHF1 (UniProt Q96S99) | 0.997 ± 0.035 |
| ITPA (UniProt Q9BY32) | 1 ± 0.083 |
| UniProt Q9BTX1 and related entries | 0.997 ± 0.019 |
| NUP85 (UniProt Q9BW27) | 1.07 ± 0.018 |
| UniProt Q9BVC5 and related entries | 0.933 ± 0.036 |
| UniProt Q9BTA9 and related entries | 1.047 ± 0.01 |
| NABP2 (UniProt Q9BQ15) | 1 ± 0.095 |
| VAT1 (UniProt Q99536) | 0.971 ± 0.026 |
| UniProt Q9BQG0 and related entries | 1.05 ± 0.02 |

Some of the entries above, reformatted.
UniProt Q9BZ67-2
  NP40-soluble protein abundance = 0.995 ± 0.02
UniProt Q9BTX1 and related entries
  NP40-soluble protein abundance = 0.997 ± 0.019

— the supplement of paper PMC6411743
